# Where a name gives a salt, the structure may show the parent alone. This is one part of the list. Many values rest on one well or one pass, so single values are uncertain.
# What was measured:
# Test in all cases: reduction in cell viability relative to untreated/vehicle; higher = more growth inhibition
# Conditions in all cases: 200 nM; 72 h
# M229P = test system: M229P (parental melanoma line)
# M229R = test system: M229R (matched melanoma line resistant to BRAF inhibitors)
# M238P = test system: M238P (parental melanoma line)
# M238R = test system: M238R (matched melanoma line resistant to BRAF inhibitors)
# M249P = test system: M249P (parental melanoma line)
# M249R = test system: M249R (matched melanoma line resistant to BRAF inhibitors)
# UACC62P = test system: UACC62P (parental melanoma line)
# UACC62R = test system: UACC62R (matched melanoma line resistant to BRAF inhibitors)
Structure (SMILES),reduction in cell viability (M229P) [%],reduction in cell viability (M229R) [%],reduction in cell viability (M238P) [%],reduction in cell viability (M238R) [%],reduction in cell viability (M249P) [%],reduction in cell viability (M249R) [%],reduction in cell viability (UACC62P) [%],reduction in cell viability (UACC62R) [%]
COc1cc(Oc2ccnc3cc(OC)c(OC)cc23)ccc1NC(=O)NC(C)c1nccs1 (stereo not drawn),< 0,< 0,< 0,< 0,< 0,< 0,< 0,< 0
O=C(O)c1cccc(-c2noc(-c3ccccc3F)n2)c1,< 0,< 0,< 0,< 0,< 0,< 0,< 0,< 0
CC[C@H]1OC(=O)[C@H](C)[C@@H](O[C@H]2C[C@@](C)(OC)[C@@H](O)[C@H](C)O2)[C@H](C)[C@@H](O[C@@H]2O[C@H](C)C[C@H](N(C)C)[C@H]2O)[C@](C)(OC)C[C@@H](C)C(=O)[C@H](C)[C@@H](O)[C@]1(C)O [Clarithromycin],< 0,< 0,< 0,< 0,< 0,< 0,3.11,< 0
CN(C)c1ccc(-c2nc3ncc(Cl)c(N4CCN(CC(=O)Nc5nccs5)CC4)c3[nH]2)cc1,< 0,< 0,< 0,< 0,13.6,< 0,25.9,11.7
Cn1cncc1[C@@](N)(c1ccc(Cl)cc1)c1ccc2c(c1)c(-c1cccc(Cl)c1)cc(=O)n2C [Tipifarnib],< 0,< 0,< 0,2.05,< 0,3.84,< 0,21.1
C[C@]12C=CC(=O)N[C@@H]1CC[C@@H]1[C@@H]2CC[C@]2(C)[C@@H](C(=O)Nc3cc(C(F)(F)F)ccc3C(F)(F)F)CC[C@@H]12 [Dutasteride],< 0,< 0,< 0,< 0,< 0,< 0,–,< 0
CC(C)c1c(C(=O)Nc2ccccc2)c(-c2ccccc2)c(-c2ccc(F)cc2)n1CC[C@@H](O)C[C@@H](O)CC(=O)O [Atorvastatin calcium],< 0,< 0,< 0,< 0,< 0,< 0,< 0,< 0
CC(=O)CC(c1ccccc1)c1c(O)c2ccccc2oc1=O (stereo not drawn) [Warfarin sodium],< 0,< 0,< 0,< 0,< 0,< 0,< 0,< 0
CCN(CC)CCOc1ccc(C(=C(Cl)c2ccccc2)c2ccccc2)cc1 [Clomifene citrate],< 0,< 0,< 0,< 0,< 0,< 0,< 0,< 0
O=C(O)Cn1nnc(-c2cc(N3CCC(Oc4cc(F)ccc4Br)CC3)no2)n1,< 0,< 0,< 0,< 0,< 0,< 0,< 0,< 0
CCCC[C@@H](C=O)NC(=O)[C@H](CC(C)C)NC(=O)OCc1ccccc1 [Calpeptin],< 0,–,< 0,< 0,< 0,< 0,–,< 0
CCn1c(C(=O)N(C2CC2)C2CC2)cc2c3c(ncn3C)c(Nc3cc(C)n(C)n3)nc21,< 0,< 0,< 0,< 0,< 0,3.81,< 0,< 0
C#CCN(C)CC1=Cc2ccccc2Oc2ccccc21 [Omigapil],< 0,< 0,< 0,< 0,< 0,< 0,7.62,< 0
Cc1c(NC(=O)OC[C@@H]2COCCN2)cn2ncnc(Nc3ccc4c(cnn4Cc4cccc(F)c4)c3)c12,< 0,< 0,< 0,< 0,< 0,< 0,8.45,< 0
CN(C)c1ccc(C2Nc3ccc4ccccc4c3C3=C2C(=O)CC(C)(C)C3)cc1Br (stereo not drawn),< 0,< 0,< 0,< 0,< 0,0.17,< 0,< 0
C[C@@]1(C(=O)Nc2ccc(F)nc2)CCCN1c1nc(Nc2cc(C3CC3)n[nH]2)c2cccn2n1,6.61,22.5,29.6,< 0,< 0,< 0,2.85,< 0
CN(C)c1nc(Cc2ccc(NC(=O)c3ccc(C(F)(F)F)cc3)cc2)nc(N(C)C)c1CC(=O)O,< 0,< 0,< 0,< 0,< 0,< 0,< 0,< 0
O=c1oc2c(O)c(O)cc3c(=O)oc4c(O)c(O)cc1c4c23 [Ellagic acid],< 0,< 0,< 0,< 0,< 0,< 0,< 0,< 0
COc1cccc(N(C)C(=S)Oc2ccc3c(c2)CCCC3)n1 [Liranaftate],< 0,< 0,< 0,< 0,< 0,< 0,< 0,< 0
COCCCC/C(=N\OCCN)c1ccc(C(F)(F)F)cc1 [Fluvoxamine],< 0,< 0,< 0,< 0,< 0,< 0,< 0,< 0
CN1c2ccccc2C(=O)N2CCc3c([nH]c4ccccc34)C21 (stereo in doubt) [Evodiamine],12.8,29.9,36.1,3.9,6.22,15.1,16.4,47.2
O=C(c1ccc(/C=C/c2n[nH]c3ccccc23)cc1)N1CCNCC1,< 0,< 0,< 0,< 0,< 0,< 0,< 0,< 0

# Exported with tabs: part of the list above.
Structure (SMILES)	reduction in cell viability (M229P) [%]	reduction in cell viability (M229R) [%]	reduction in cell viability (M238P) [%]	reduction in cell viability (M238R) [%]	reduction in cell viability (M249P) [%]	reduction in cell viability (M249R) [%]	reduction in cell viability (UACC62P) [%]	reduction in cell viability (UACC62R) [%]
COc1cc(Oc2ccnc3cc(OC)c(OC)cc23)ccc1NC(=O)NC(C)c1nccs1 (stereo not drawn)	< 0	< 0	< 0	< 0	< 0	< 0	< 0	< 0
O=C(O)c1cccc(-c2noc(-c3ccccc3F)n2)c1	< 0	< 0	< 0	< 0	< 0	< 0	< 0	< 0
CC[C@H]1OC(=O)[C@H](C)[C@@H](O[C@H]2C[C@@](C)(OC)[C@@H](O)[C@H](C)O2)[C@H](C)[C@@H](O[C@@H]2O[C@H](C)C[C@H](N(C)C)[C@H]2O)[C@](C)(OC)C[C@@H](C)C(=O)[C@H](C)[C@@H](O)[C@]1(C)O [Clarithromycin]	< 0	< 0	< 0	< 0	< 0	< 0	3.11	< 0
CN(C)c1ccc(-c2nc3ncc(Cl)c(N4CCN(CC(=O)Nc5nccs5)CC4)c3[nH]2)cc1	< 0	< 0	< 0	< 0	13.6	< 0	25.9	11.7
